According to US10143681B2, “Factor XIa inhibitors” (MERCK SHARP & DOHME CORP., priority 2016, dated 2018):
For at least one compound, name, drawing or mass did not settle the structure.

Tested on: Human plasma (intrinsic coagulation cascade)
Experiment: Activated Partial Thromboplastin Time (aPTT) Assay
Conditions: concentration that causes a 50% (1.5×) increase of clot time over vehicle
Method: Activated partial thromboplastin time (aPTT) is a clotting test that measures the intrinsic coagulation cascade. The test is performed in sodium citrated plasma. Human plasma is made by collecting blood from healthy donors of both genders into Na citrate tubes (Sarstedt coagulation 9NC/10 ml). Blood is centrifuged at 1500×g and the plasma is collected. aPTT is checked on each individual donor and those within the normal range (28-40 seconds) are pooled, aliquoted, and stored at −80 C. Test samples are prepared by spiking inhibitors or vehicle into plasma. These spiked samples are then run on a coagulation analyzer (STA-R Evolution, Stago Diagnostica). In general, the analyzer performs the following steps: Factor XII is activated by addition of ellagic acid (Pacific Hemostasis), and then time to clot is measured after re-calcification of the sample. Inhibition of FXI will cause aPTT clot time to be prolonged. The data is expressed as percent increase over vehicle control clot time and the concentration that causes a 50% (1.5×) percent increase of clot time are reported.

Row | Compound | aPTT (1.5x)
1 | O=C(O)c1ccc(NC(=O)C(CC2CC2C(F)F)c2ccc(-c3c(C(F)F)ccc(Cl)c3F)c[n+]2[O-])cc1 (single isomer, unassigned) [Example 89, 2-(1-((4-carboxyphenyl)amino)-3-(2-(difluoromethyl)cyclopropyl)-1-oxopropan-2-yl)-5-(3-chloro-6-(difluoromethyl)-2-fluorophenyl)pyridine-1-oxide] | 0.68 µM
2 | O=C(O)c1ccc(NC(=O)C(CC2CC2C(F)F)c2ccc(-c3c(C(F)F)ccc(Cl)c3F)c[n+]2[O-])cc1 (single isomer, unassigned) [Example 90, 2-(1-((4-carboxyphenyl)amino)-3-(2-(difluoromethyl)cyclopropyl)-1-oxopropan-2-yl)-5-(3-chloro-6-(difluoromethyl)-2-fluorophenyl)pyridine 1-oxide] | 0.57 µM
